Values quoted from earlier work in patent US20080267939A1, “SYNERGISTIC ANTI-HYPERTENSIVE PHYTO-NUTRACEUTICAL COMPOSITION” (priority 2006, published 2008).
At least one compound was matched to its structure with a doubt left.

System: adenylate cyclase
Conditions: eukaryotic cells, without hormonal activation of adenylate cyclase

SMILES: C=C[C@@]1(C)CC(=O)[C@]2(O)[C@@]3(C)[C@@H](O)CCC(C)(C)[C@@H]3[C@H](O)[C@H](OC(C)=O)[C@@]2(C)O1 [forskolin]
- cAMP formation: increase cAMP formation in all eukaryotic cells
